In paper PMC7555893, “Structural role of essential light chains in the apicomplexan glideosome” (Communications Biology, 2020) one finds binding data, which are given here for four substances.

Amino acid sequences for entries named in this document (tags omitted). A change or cut given only in a name is not applied to a line headed by its entry.
UniProt Q8IJM4: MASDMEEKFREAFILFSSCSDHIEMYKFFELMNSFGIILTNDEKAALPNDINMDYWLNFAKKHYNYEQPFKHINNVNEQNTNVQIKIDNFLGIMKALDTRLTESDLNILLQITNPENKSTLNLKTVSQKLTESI
UniProt Q8IDR3: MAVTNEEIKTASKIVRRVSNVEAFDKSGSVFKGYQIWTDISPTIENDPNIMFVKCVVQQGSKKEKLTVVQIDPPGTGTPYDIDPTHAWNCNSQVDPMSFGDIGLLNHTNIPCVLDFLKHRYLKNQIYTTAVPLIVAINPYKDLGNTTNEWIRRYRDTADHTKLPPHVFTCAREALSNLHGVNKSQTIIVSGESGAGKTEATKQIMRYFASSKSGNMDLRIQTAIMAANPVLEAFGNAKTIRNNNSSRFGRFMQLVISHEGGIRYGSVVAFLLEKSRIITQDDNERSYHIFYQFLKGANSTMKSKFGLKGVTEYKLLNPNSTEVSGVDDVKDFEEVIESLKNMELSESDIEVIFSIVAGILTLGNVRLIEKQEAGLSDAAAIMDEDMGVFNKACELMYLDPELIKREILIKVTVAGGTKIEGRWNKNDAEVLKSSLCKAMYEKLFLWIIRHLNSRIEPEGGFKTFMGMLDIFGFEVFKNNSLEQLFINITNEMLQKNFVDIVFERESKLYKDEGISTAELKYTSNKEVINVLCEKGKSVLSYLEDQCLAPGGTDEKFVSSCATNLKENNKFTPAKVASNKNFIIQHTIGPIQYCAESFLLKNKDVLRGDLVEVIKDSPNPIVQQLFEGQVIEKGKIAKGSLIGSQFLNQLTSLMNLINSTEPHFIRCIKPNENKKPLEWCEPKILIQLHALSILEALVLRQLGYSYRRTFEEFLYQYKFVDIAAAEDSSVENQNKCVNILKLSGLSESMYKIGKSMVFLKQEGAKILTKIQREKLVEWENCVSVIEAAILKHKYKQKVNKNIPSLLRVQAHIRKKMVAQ

Results are given in words; binding and its absence hold for the method and conditions named.

Experiment [1] concerns the target P. falciparum essential light chain (PfELC) (P. falciparum 3D7) (UniProt Q8IJM4). Kind of experiment: NMR + non-reducing SDS-PAGE + SAXS; isolated PfELC and PfELC-N in solution; both purified.
The target of experiment [2] is PfELC N-terminal domain (PfELC-N) (P. falciparum 3D7) (UniProt Q8IJM4). The experiment is described as above.
The target of experiment [3] is P. falciparum essential light chain (PfELC) (P. falciparum 3D7) (UniProt Q8IJM4). Kind of experiment: ITC; PfELC mixed with PfMyoA peptides of the previously described binding sites; precipitation upon mixing; the method is taken from 'we measured the binding affinity', conditions not given; both purified. In general terms: ITC needs no label: the signal is the heat of the interaction.

“P. falciparum essential light chain (PfELC) (from UniProt Q8IJM4 1-134)”: the binding entry in experiment [1] is listed as “no binding”. In the case of “PfELC N-terminal domain (PfELC-N) (from UniProt Q8IJM4 1-74) (domain or fragment)”, the binding entry in experiment [2] was “no binding”. For the substance “PfMyoA peptide, residues 786-803 (from UniProt Q8IDR3 786-803)”, in experiment [3], the binding entry was “no binding”.

Regarding “PfMyoA peptide, residues 801-818 (from UniProt Q8IDR3 801-818)”, the binding entry in experiment [3] is on record as “no binding”.
